For this series the following is noted: human.

The text below walks through data of PMC9756784 (Journal of Mass Spectrometry and Advances in the Clinical …, 2022).

`O=C(O)c1cn(C2CC2)c2cc(N3CCNCC3)c(F)cc2c1=O` [Ciprofloxacin, ciprofloxacin]: the “Length of time for which stability is assumed” value came out at 24h RT.
